In the supplement of paper PMC10849652:
This is one part of the list.

Chains of the proteins cited; added tags and fusions are not shown. Lines headed by an entry give the natural chain unless they say otherwise; changes in a name come on top.
UniProt Q9UFN0: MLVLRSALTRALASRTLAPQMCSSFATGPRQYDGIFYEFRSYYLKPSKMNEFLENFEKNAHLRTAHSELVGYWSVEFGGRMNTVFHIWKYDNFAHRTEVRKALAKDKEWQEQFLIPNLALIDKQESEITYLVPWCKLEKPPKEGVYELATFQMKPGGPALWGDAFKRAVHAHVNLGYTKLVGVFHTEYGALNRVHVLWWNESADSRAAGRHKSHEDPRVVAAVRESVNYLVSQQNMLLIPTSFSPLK
UniProt Q15843, whole entry, looked up: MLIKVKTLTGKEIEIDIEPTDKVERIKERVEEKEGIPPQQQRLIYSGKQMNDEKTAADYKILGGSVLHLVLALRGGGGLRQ
UniProt Q9P032: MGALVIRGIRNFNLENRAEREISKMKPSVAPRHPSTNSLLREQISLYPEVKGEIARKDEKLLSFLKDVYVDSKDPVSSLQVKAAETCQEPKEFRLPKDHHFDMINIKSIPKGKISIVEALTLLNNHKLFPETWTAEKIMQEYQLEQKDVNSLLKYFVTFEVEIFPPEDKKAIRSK
UniProt Q9UN36: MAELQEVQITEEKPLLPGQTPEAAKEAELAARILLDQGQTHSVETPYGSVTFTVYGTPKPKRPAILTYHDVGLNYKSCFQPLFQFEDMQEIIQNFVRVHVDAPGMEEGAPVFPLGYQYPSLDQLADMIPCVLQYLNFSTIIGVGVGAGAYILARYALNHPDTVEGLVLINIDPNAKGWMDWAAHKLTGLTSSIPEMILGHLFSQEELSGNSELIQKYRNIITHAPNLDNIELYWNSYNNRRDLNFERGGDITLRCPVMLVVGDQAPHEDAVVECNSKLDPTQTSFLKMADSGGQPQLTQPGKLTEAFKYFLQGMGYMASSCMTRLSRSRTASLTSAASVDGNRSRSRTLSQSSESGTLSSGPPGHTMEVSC
UniProt Q9BYG3: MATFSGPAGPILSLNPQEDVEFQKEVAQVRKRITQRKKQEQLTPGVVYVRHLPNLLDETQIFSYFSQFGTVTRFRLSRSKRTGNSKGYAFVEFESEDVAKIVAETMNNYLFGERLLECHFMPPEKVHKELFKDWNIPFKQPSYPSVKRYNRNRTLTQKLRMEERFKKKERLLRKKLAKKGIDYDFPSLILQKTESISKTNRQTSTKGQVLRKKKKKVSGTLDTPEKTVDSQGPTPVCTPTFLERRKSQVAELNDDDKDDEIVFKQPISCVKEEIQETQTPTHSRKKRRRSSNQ
UniProt Q9UMS0: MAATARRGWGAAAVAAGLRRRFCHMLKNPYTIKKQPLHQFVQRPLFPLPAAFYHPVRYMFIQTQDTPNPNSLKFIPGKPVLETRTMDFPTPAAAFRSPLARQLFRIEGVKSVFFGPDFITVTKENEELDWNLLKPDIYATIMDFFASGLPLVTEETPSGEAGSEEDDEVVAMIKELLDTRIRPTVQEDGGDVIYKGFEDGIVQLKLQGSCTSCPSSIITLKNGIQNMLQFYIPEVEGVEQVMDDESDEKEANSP
UniProt O14777: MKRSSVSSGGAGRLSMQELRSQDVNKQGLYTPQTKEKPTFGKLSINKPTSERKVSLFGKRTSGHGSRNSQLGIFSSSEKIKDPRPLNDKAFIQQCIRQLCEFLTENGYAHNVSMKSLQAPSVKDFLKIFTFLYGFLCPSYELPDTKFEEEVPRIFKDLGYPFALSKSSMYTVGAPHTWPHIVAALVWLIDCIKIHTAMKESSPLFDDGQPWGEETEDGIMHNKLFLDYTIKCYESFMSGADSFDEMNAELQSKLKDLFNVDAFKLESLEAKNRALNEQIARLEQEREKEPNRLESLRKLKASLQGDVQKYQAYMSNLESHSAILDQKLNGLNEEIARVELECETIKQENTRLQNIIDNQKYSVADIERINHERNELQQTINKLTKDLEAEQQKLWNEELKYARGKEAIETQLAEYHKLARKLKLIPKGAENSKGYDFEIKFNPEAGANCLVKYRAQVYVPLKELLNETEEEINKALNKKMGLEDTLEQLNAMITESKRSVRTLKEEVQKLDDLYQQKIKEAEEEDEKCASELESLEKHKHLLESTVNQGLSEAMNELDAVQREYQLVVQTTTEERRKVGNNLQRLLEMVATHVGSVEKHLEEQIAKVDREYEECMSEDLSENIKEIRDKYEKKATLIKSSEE
UniProt Q8NHV4, whole entry, looked up: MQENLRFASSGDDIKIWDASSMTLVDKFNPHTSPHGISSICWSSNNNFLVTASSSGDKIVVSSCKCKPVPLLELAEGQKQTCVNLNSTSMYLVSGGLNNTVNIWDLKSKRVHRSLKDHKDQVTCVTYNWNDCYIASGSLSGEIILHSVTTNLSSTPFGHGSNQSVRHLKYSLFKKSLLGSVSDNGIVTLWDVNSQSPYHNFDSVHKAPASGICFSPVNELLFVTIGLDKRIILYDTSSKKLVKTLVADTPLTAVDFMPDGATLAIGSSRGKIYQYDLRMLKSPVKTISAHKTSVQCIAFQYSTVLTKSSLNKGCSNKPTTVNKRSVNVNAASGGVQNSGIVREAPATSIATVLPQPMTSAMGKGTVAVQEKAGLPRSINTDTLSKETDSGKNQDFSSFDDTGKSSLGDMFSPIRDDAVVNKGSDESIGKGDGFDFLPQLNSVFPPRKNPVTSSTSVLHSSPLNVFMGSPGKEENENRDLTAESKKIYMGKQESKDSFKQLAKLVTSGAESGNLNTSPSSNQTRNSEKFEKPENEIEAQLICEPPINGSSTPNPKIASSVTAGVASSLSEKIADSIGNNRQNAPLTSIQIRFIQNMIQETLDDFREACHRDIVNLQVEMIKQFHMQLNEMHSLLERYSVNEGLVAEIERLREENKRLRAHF
UniProt Q86X76: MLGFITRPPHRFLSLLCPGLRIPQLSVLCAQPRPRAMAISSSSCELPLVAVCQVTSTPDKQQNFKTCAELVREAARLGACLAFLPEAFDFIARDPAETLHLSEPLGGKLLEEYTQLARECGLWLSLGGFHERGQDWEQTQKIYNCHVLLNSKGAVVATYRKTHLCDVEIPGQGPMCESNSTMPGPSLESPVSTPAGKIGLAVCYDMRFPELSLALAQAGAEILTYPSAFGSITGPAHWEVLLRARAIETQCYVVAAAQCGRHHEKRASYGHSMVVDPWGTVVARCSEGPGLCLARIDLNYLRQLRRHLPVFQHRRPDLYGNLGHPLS
UniProt Q9NX02: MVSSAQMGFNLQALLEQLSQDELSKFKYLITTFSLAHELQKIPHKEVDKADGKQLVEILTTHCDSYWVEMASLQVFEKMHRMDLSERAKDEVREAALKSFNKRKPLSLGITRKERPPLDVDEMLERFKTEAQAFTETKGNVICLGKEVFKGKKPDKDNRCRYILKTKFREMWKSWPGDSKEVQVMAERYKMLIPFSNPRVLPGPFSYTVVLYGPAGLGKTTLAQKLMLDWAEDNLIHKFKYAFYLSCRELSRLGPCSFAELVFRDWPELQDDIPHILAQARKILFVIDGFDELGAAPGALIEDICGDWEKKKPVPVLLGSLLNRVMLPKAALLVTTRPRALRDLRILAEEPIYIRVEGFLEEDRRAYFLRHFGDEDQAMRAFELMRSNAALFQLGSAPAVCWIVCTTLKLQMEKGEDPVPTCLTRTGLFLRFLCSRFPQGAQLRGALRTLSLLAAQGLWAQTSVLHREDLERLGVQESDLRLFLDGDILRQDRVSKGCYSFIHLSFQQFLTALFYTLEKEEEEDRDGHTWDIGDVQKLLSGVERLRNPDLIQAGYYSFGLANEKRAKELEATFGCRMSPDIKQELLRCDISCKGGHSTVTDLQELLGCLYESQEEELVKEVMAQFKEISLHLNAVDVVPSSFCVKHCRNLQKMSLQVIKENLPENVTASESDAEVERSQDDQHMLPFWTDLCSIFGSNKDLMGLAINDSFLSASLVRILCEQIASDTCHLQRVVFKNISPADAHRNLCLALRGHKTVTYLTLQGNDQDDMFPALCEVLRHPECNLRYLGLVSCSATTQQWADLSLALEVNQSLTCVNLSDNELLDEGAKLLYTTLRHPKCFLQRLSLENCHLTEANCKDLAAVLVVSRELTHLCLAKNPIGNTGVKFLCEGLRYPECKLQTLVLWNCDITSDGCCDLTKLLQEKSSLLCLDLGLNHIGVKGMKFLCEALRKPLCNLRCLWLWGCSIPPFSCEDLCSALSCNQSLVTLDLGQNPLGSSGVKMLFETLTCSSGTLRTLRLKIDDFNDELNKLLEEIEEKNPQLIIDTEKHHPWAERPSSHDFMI
UniProt P46934: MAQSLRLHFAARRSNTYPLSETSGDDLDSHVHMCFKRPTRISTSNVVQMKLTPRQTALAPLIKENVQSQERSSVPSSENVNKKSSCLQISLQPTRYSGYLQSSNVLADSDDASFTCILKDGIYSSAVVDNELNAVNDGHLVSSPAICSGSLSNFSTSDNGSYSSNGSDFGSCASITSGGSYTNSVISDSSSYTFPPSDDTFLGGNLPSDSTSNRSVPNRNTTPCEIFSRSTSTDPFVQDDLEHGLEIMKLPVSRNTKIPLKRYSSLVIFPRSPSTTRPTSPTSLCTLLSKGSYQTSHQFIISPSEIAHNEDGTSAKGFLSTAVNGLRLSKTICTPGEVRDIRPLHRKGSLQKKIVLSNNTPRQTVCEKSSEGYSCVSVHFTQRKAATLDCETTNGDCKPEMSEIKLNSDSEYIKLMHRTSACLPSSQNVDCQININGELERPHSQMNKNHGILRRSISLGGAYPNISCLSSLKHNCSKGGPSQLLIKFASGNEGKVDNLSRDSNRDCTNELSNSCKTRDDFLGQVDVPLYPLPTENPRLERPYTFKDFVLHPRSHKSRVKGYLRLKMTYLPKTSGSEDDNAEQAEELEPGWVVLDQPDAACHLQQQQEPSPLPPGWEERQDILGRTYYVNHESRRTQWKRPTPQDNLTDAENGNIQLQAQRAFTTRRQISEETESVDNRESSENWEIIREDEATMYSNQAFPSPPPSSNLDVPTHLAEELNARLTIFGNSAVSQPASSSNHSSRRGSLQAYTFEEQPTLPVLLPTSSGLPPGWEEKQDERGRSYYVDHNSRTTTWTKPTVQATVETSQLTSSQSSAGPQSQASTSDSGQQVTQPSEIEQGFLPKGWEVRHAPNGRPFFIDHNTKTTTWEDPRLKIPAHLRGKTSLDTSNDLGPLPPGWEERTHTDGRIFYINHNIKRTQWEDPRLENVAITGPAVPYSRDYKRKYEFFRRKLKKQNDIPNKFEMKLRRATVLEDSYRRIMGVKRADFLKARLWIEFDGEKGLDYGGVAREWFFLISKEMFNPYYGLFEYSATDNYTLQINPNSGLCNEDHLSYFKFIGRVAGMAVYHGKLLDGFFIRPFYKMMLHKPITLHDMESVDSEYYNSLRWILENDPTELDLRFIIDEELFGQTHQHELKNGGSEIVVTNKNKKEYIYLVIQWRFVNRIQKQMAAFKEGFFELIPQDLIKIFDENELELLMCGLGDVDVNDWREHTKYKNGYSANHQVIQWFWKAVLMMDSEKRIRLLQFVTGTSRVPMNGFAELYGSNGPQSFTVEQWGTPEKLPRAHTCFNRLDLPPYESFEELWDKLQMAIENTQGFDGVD
UniProt Q6NW34: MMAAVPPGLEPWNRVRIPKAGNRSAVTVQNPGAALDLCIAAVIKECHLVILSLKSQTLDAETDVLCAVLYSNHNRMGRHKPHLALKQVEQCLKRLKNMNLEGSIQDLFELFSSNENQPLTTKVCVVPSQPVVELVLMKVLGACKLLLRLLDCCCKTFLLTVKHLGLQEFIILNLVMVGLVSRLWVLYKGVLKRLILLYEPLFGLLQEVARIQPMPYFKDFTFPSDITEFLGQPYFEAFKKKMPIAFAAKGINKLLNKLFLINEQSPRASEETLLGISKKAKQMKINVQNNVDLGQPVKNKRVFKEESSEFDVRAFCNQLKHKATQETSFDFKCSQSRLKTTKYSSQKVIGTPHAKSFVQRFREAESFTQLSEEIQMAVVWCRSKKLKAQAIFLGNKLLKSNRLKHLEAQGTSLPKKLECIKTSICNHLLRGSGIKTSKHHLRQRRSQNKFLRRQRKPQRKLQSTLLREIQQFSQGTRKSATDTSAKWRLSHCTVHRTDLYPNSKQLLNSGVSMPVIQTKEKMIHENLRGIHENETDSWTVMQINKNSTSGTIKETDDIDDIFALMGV
UniProt Q86Y39, whole entry, looked up: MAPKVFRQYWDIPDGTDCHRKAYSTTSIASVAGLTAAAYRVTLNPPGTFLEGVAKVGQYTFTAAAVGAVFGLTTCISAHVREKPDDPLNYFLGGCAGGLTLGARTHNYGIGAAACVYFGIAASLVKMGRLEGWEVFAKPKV
UniProt Q9Y697: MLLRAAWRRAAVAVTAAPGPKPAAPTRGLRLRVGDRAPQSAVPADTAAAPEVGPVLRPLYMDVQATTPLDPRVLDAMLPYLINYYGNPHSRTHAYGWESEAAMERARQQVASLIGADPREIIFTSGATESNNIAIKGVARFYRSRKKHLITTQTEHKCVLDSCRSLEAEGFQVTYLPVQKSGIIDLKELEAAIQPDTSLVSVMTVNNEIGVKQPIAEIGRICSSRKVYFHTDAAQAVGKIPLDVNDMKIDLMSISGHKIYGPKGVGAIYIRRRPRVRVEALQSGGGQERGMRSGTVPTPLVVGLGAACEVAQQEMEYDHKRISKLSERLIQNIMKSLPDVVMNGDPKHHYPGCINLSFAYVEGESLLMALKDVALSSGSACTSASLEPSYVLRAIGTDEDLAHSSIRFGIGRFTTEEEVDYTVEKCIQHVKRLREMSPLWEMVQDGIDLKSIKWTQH

compound: Cc1cc(Nc2cc(N3CCN(C)CC3)nc(Sc3ccc(NC(=O)C4CC4)cc3)n2)n[nH]1 [tozasertib]; assay: log2 fold change, soluble protein after heating vs DMSO (PISA); higher = thermal stabilisation; K562 lysate, 10 uM; active = over 0.2 and 3.5 SD of the protein, either way, in both replicates (recomputed)
How it was run: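 Log-two fold change in thermal stability relative to solvent controls is reported from duplicates. For each sample, crude K562 extract from dounce-homogenised pellets in PBS pH 7.4 with 1 mM MgCl2, at 1 mg/mL protein, was treated with 10 μM compound for 30 min. Aliquots heated for 3 min across 48°C-58°C were pooled, brought to 0.5% NP-40 at 4°C and cleared at 21,000xg for 90 min. The supernatant was quantified by TMTpro 16plex LC-MS/MS with channel sums equalised.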

log2 fold change, inactive:
NIPSNAP3A (UniProt Q9UFN0) -0.011
NEDD8 (UniProt Q15843) 0.06
NDUFAF4 (UniProt Q9P032) 0.041
NDUFV1 (UniProt P49821) 0.043
NEU1 (UniProt Q99519) 0.024
NDRG2 (UniProt Q9UN36) -0.031
NDUFAB1 (UniProt O14561) 0.082
NIFK (UniProt Q9BYG3) 0.036
NFU1 (UniProt Q9UMS0) -0.003
NDC80 (UniProt O14777) 0.003
NEDD1 isoform 3 (UniProt Q8NHV4) 0.031
NIP7 (UniProt Q9Y221) -0.042
NIT1 (UniProt Q86X76) -0.008
NDUFA10 (UniProt O95299) 0.04
NFIC (UniProt P08651) 0.035
NLRP2 (UniProt Q9NX02) 0.005
NEDD4 isoform 4 (UniProt P46934) 0.026
NDRG3 (UniProt Q9UGV2) -0.007
NFKBIE (UniProt O00221) 0.07
NEPRO (UniProt Q6NW34) 0.018
NDUFA11 (UniProt Q86Y39) 0.013
NGLY1 (UniProt Q96IV0) -0.025
NFS1 (UniProt Q9Y697) 0.058

2 entries drawn at random from those above, as already listed:
log2 fold change, inactive:
NDUFV1 (UniProt P49821) 0.043
NEU1 (UniProt Q99519) 0.024
